The test in a line: qHTS Assay for Modulators of Lamin A Splicing. As to conditions: HeLa LMNA splicing GFP/RFP minigene ratio, 48 h. A digest of the protocol:
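S3 HeLa cells stably expressing lamin A-EGFP splicing minigene plus DsRed2, 600 cells/well, 48 h compound exposure at 37C. Laser-scanning cytometry; analysed as GFP (500-530 nm)/RFP (575-640 nm) total intensity ratio; 0.5% DMSO vehicle.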

[1] abbreviates: measured here: RFP viability control channel.
[2] abbreviates: measured here: GFP splicing reporter channel.

The list shows a part of the results. Further columns of the screen follow, without active or inactive calls. The list favours compounds with an active or inconclusive main result. The note in brackets gives the kind of curve behind each potency; many fits are weak.

For `CCc1ccccc1-n1cnc2cc(C(=O)O)ccc21`, the AC50 under setting [1] is 0.141 µM [falling, partial curve, poor fit].

Consider `N#C/C(=C\c1ccc(O)c(O)c1)C(=O)NCCc1ccccc1`, for which the AC50 is 11.2 µM [falling, partial curve, poor fit] under setting [2] and 0.000794 µM [falling, full curve, poor fit] under setting [1].

In the case of `COc1ccc(C(=O)c2ccc(N(C)C)cc2)c2ccccc12`, the AC50 under setting [1] is 1.78 µM [rising, partial curve].

On to `CCOC(=O)Cc1csc(NC(=S)NC(=O)c2ccc(F)cc2)n1`, for which the AC50 under setting [1] was 14.1 µM [falling, partial curve].

Regarding `CCCC(C(=O)Nc1cc(C)c(Cl)cc1OC)N1Cc2ccccc2C1=O` (centres undefined), the concentration at half-maximal activity (AC50) reads like this: under setting [2], 35.5 µM [rising, single point]; under setting [1], 35.5 µM [rising, single point].

For the compound `COc1ccc(/C=C2\CCCC3C2=NN(C(=O)CSc2ncn[nH]2)C3c2ccc(OC)cc2)cc1` (centres undefined), the concentration at half-maximal activity (AC50) under setting [2] is 28.2 µM [falling, single point].

As to `Cc1ccc(OCC(O)CN2CCN(c3ccccn3)CC2)c(C)c1` (centres undefined), the AC50 by setting is: under setting [2], 0.562 µM [falling, partial curve, poor fit]; under setting [1], 17.8 µM [falling, partial curve, poor fit].

Consider `Cc1cc(C)cc(C(=O)N2CCN=C2SCc2ccc([N+](=O)[O-])cc2)c1`, for which, under setting [1], the AC50 was 22.4 µM [falling, single point].

Take `Cc1ccc(CCNC(=O)c2ccc(CNS(=O)(=O)c3ccc(F)cc3)cc2)cc1`: under setting [2], the AC50 was 0.282 µM [rising, full curve, poor fit].

With `S=C(Nc1ccccc1Cl)N1CCOCC1`, the AC50 under setting [2] is 0.0891 µM [falling, full curve, poor fit].

For the compound `Nc1c(C(=O)Nc2ccccc2F)sc2nc(Cc3ccccc3)cc(C(F)(F)F)c12`, the AC50 under setting [1] is 3.98 µM [falling, full curve].

In the case of `Cc1c(C(=O)Nc2ccccc2Cl)oc2ccc(S(=O)(=O)N3CCCCCC3)cc12`, under setting [2], the AC50 was 35.5 µM [rising, single point].

Consider `O=C(COc1ccc([N+](=O)[O-])cc1)N/N=C/c1cc([N+](=O)[O-])ccc1N1CCOCC1`, for which the concentration at half-maximal activity (AC50) under setting [1] was 0.0794 µM [rising, full curve, poor fit].

Regarding `CC(C)c1ccc(N(CC(=O)NCC2CCCO2)C(=O)Cn2nnc(-c3cccs3)n2)cc1` (centres undefined), the AC50 under setting [2] is 28.2 µM [falling, single point].

Consider `O=C1N=C(N2CCOCC2)S/C1=C\c1ccc(-c2ccccc2Cl)o1`, for which the AC50 under setting [1] was 2.24 µM [rising, full curve, poor fit].

Take `CC(Sc1ncnc2ccccc12)C(=O)Nc1ccc2c(c1)OCCO2` (centres undefined): under setting [1], the AC50 is 12.6 µM [rising, partial curve, poor fit].
